Measurements from patent US20240225056A1, “Rhodotorula Capable of Efficiently Degrading Ethyl Carbamate and Application Thereof” (priority 2022, published 2024).
For at least one compound, name, drawing or mass did not settle the structure.

System: R. toruloides DL-XSY01
Assay: Antibiotic sensitivity test, disc diffusion method
Type: cell-based
Conditions: YPD-agar, 28° C., 24 h
Experimental: The antibiotic sensitivity spectrum of the R. toruloides DL-XSY01 was characterized by using a disc diffusion method. […] The above medium with each type of paper was statically cultured at 28° C. for 24 h, and then the diameter of an inhibition zone was measured and counted; and analysis was performed on the drug resistance R (≤14 mm), intermediate-phase I (14-20 mm) or sensitivity S (≥20 mm), with three replicates for each group.

CN(C)c1ccc(O)c2c1C[C@H]1C[C@H]3[C@H](N(C)C)C(O)=C(C(N)=O)C(=O)[C@@]3(O)C(O)=C1C2=O [Minocycline]
Antibiotic sensitivity of DL-XSY01 (in words): sensitive

CN(C)[C@@H]1C(O)=C(C(N)=O)C(=O)[C@@]2(O)C(O)=C3C(=O)c4c(O)cccc4[C@@](C)(O)[C@H]3C[C@@H]12 [Tetracycline]
Antibiotic sensitivity of DL-XSY01 (in words): sensitive
